Data published in patent US8680268B2, “Sulfonic acid derivative compound and novel naphthalic acid derivative compound” (Adeka Corporation, priority 2010, dated 2014).

Assay: Evaluation of resist sensitivity (light exposure value from patterns formed)
Details: resist liquid on aluminum plate, high-pressure mercury lamp

Compound `O=C1c2cccc3cccc(c23)C(=O)N1OS(=O)(=O)C(F)(F)F` [Comparative compound 2] has a Light exposure sensitivity (365 nm) of 1.0 J/cm^2, a Light exposure sensitivity (405 nm) greater than 33 J/cm^2 and a Light exposure sensitivity (435 nm) greater than 33 J/cm^2.
